The list shows a part of the results.
How the values were obtained:
Assay in all cases: log2 fold change, soluble protein after heating vs DMSO (PISA); higher = thermal stabilisation; K562 lysate, 10 uM; active = over 0.2 and 3.5 SD of the protein, either way, in both replicates (recomputed)
erlotinib = compound: C#Cc1cccc(Nc2ncnc3cc(OCCOC)c(OCCOC)cc23)c1 [erlotinib]
Summary of the method: (§1)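 Following dounce homogenisation of K562 pellets in PBS pH 7.4 with 1 mM MgCl2, crude extract at 1 mg/mL protein was incubated for 30 min with 10 μM compound. Aliquots were then heated for 3 min over 48°C-58°C and pooled, NP-40 was added to 0.5% at 4°C, and soluble protein was recovered as the supernatant at 21,000xg for 90 min. Channel-sum-equalised TMTpro 16plex LC-MS/MS quantified this protein. Each value, from duplicates, is a log-two fold change in thermal stability relative to solvent controls.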

Chains of the proteins cited; added tags and fusions are not shown. Lines headed by an entry give the natural chain unless they say otherwise; changes in a name come on top.
UniProt Q9P2K6: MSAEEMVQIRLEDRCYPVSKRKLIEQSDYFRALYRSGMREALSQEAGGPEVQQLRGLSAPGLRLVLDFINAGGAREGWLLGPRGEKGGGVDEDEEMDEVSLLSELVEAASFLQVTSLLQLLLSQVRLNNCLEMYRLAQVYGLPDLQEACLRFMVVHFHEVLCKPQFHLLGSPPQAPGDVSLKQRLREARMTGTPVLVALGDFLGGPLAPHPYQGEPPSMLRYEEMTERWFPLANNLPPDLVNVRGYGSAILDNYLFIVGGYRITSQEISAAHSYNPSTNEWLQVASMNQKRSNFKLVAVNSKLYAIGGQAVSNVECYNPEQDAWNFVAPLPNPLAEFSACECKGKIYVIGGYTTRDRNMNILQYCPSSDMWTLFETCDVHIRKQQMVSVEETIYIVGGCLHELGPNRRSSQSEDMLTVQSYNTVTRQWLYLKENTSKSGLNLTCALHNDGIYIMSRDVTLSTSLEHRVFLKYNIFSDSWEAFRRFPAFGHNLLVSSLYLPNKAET
UniProt Q9ULI4: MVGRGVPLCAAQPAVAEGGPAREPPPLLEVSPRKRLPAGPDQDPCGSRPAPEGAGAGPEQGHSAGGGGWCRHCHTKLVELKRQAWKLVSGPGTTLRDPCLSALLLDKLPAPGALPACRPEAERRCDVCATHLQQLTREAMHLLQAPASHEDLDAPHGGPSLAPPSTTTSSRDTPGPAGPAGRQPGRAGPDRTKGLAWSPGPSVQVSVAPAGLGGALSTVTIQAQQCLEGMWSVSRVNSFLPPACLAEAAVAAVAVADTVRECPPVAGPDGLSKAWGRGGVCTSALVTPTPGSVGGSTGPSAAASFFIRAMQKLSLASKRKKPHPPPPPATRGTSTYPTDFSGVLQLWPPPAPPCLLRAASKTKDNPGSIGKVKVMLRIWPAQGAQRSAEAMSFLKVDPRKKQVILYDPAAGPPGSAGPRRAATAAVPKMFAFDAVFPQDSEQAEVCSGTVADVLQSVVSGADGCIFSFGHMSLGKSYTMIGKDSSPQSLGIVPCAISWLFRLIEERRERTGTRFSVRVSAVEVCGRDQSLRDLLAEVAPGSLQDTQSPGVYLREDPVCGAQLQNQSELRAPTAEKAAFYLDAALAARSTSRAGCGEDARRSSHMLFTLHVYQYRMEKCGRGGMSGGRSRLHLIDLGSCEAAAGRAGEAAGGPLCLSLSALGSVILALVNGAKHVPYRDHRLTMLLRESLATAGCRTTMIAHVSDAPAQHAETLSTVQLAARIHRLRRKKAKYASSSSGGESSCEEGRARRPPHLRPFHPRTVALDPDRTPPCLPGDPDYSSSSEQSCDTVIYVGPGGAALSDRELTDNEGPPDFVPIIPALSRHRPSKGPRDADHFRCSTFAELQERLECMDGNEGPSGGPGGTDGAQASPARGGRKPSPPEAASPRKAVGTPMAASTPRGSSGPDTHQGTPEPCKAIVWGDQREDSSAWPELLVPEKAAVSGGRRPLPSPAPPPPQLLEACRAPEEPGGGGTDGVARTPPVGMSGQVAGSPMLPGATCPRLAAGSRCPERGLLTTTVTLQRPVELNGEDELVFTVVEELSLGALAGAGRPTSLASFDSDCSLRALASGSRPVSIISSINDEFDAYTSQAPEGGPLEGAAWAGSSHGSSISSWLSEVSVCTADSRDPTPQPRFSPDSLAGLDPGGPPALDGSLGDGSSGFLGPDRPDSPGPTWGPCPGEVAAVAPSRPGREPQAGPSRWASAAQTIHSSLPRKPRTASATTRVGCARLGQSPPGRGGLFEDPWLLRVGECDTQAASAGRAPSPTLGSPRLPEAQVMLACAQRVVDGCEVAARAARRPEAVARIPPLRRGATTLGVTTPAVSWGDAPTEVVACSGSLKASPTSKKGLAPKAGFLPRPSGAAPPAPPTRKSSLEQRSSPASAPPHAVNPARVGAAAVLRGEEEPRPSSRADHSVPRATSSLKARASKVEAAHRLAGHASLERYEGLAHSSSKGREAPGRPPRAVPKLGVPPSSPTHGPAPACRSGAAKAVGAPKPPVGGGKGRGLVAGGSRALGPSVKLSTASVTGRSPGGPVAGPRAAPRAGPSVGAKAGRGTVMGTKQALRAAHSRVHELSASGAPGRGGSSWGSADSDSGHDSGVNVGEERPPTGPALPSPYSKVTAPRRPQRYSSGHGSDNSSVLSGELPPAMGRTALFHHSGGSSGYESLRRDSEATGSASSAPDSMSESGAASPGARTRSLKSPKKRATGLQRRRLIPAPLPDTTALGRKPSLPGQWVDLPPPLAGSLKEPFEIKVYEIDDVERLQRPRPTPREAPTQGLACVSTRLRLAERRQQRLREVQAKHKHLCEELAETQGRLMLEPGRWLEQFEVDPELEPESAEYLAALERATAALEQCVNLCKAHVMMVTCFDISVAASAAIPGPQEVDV
UniProt Q9BVG8: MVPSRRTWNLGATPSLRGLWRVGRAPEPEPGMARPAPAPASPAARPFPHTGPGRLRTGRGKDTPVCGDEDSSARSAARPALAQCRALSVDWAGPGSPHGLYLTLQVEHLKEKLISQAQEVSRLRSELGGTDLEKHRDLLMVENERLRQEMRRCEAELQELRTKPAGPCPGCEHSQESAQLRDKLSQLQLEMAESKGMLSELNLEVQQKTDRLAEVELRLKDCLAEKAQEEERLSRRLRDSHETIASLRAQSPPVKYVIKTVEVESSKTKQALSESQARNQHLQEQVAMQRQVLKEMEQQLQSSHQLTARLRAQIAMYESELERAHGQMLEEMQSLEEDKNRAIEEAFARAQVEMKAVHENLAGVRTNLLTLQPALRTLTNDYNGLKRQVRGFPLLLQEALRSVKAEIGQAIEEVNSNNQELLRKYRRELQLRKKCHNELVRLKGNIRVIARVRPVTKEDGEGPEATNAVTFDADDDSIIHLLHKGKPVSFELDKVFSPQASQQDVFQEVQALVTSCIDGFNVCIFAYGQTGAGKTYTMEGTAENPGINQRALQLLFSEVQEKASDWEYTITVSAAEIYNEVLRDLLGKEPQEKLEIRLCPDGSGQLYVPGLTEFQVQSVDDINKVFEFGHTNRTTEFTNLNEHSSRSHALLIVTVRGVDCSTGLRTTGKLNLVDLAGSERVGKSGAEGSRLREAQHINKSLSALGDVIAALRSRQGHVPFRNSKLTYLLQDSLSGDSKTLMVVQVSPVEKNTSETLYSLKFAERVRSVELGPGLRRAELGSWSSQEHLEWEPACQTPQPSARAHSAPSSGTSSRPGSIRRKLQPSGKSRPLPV
UniProt Q13351: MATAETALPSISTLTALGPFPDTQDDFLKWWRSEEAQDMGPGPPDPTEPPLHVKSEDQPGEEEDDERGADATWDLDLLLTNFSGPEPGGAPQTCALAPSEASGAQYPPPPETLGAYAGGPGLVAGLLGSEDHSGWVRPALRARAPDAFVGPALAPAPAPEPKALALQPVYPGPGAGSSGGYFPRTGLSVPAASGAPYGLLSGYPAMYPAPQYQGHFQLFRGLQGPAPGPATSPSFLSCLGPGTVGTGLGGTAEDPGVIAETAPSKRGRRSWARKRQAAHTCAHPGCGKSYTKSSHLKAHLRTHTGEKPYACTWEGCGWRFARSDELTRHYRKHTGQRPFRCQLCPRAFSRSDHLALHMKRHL
UniProt O15131, whole entry, looked up: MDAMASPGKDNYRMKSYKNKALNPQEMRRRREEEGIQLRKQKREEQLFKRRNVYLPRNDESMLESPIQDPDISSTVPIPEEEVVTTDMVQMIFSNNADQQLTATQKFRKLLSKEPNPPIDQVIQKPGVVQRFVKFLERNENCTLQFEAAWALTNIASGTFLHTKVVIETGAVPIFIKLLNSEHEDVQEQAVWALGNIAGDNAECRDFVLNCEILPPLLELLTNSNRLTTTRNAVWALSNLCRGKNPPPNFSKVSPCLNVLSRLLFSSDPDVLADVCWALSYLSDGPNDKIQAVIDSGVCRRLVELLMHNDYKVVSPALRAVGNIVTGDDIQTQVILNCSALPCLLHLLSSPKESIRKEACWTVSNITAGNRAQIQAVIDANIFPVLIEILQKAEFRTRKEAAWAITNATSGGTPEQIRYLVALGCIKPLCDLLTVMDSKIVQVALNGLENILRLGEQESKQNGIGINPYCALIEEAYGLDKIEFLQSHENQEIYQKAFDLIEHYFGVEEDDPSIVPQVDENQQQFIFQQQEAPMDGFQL
UniProt P29375: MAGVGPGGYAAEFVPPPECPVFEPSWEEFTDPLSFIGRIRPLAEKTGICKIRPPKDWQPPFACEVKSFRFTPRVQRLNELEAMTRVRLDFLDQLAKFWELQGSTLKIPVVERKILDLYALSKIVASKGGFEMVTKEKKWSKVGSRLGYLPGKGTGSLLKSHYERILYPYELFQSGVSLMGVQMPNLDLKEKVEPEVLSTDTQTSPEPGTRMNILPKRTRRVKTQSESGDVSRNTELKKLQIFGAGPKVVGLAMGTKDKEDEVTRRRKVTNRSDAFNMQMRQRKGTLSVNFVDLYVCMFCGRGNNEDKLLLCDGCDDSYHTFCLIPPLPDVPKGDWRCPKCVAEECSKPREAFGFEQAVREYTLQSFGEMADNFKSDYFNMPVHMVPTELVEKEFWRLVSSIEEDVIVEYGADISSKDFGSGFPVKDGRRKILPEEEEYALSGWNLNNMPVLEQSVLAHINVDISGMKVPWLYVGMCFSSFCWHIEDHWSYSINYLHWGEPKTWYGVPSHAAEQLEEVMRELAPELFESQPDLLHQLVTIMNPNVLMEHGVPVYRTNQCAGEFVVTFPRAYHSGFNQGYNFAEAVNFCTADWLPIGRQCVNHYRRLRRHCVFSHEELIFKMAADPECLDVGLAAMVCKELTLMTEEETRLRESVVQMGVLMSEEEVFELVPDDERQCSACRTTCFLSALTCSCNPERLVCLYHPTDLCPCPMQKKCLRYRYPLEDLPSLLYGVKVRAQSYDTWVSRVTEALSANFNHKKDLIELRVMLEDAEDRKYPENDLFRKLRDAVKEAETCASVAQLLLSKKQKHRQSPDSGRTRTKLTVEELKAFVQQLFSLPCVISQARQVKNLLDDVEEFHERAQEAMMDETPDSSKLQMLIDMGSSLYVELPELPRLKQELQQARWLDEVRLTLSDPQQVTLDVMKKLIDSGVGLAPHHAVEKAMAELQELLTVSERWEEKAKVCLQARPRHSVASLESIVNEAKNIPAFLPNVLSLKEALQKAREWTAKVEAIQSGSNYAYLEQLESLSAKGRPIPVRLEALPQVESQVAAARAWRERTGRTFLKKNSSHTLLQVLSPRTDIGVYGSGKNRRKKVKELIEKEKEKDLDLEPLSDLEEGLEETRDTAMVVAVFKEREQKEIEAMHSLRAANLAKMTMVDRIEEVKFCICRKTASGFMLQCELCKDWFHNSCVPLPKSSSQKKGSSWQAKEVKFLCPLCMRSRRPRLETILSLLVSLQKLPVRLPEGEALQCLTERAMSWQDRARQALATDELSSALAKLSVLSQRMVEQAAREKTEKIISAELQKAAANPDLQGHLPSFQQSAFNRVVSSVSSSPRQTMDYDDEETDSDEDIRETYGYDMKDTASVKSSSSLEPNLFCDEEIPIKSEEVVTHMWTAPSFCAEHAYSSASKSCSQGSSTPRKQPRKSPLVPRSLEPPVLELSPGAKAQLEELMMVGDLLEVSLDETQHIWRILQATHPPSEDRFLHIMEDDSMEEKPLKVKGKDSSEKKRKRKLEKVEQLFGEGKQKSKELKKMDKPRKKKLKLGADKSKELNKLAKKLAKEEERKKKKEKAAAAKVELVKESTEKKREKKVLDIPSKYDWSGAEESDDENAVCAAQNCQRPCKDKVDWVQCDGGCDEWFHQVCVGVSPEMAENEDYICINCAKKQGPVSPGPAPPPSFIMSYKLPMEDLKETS
UniProt Q9Y2Y9: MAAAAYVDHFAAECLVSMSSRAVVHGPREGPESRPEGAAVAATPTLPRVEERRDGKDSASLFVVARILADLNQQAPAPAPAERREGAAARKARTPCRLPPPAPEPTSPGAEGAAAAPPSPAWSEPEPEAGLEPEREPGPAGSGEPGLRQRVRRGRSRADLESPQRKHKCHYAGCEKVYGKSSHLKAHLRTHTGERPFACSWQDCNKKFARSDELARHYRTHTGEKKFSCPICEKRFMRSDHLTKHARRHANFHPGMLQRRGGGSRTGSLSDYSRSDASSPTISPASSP
UniProt Q6ZV70: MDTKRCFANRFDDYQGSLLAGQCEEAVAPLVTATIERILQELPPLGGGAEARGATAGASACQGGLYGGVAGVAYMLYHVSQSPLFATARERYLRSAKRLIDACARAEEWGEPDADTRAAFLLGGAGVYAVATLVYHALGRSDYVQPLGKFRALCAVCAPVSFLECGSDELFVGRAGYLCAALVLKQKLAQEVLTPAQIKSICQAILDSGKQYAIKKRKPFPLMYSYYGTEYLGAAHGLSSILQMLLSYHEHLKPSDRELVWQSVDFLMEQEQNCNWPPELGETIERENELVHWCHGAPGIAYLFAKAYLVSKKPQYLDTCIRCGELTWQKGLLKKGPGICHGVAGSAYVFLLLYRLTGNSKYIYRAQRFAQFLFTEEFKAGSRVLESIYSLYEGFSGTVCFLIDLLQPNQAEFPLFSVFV

[1] = compound: C1=CC(=CC=C1C2=NC3=C(N2)C=C(C=C3)C(=O)N)OC4=CC=C(C=C4)Cl
Summary of the method: as §1

[2] = compound: C1=CC2=NC=CN=C2C=C1/C=C/3\C(=O)NC(=O)S3
Summary of the method: as §1

[3] = compound: C1=CC=C(C=C1)C2=NC(=C(N2)C3=CC=NC=C3)C4=CC(=C(C=C4)Cl)O
Summary of the method: as §1

IRAK-1-4 Inhibitor I = compound: C1COCCN1CCN2C3=CC=CC=C3N=C2NC(=O)C4=CC(=CC=C4)[N+](=O)[O-] [IRAK-1-4 Inhibitor I]
Summary of the method: as §1

ibrutinib = compound: C=CC(=O)N1CCC[C@@H](n2nc(-c3ccc(Oc4ccccc4)cc3)c3c(N)ncnc32)C1 [ibrutinib]
Summary of the method: as §1

[4] = compound: CC(=O)c1cnc2ccc(-c3cc(Cl)c(O)c(Cl)c3)nc2c1N[C@H]1CC[C@H](CN(C)C)CC1
Summary of the method: as §1

ralimetinib = compound: CC(C)(C)Cn1c(N)nc2ccc(-c3[nH]c(C(C)(C)C)nc3-c3ccc(F)cc3)nc21 [ralimetinib]
Summary of the method: as §1

[5] = compound: CC(C)(O)CC(=O)NCCn1ccc2ncnc(Nc3ccc(Oc4cccc(C(F)(F)F)c4)c(Cl)c3)c21
Summary of the method: as §1

[6] = compound: CC(C)C1=C2N=C(C=C(N2N=C1)NCC3=CC=CC=C3)NCCCCCCN
Summary of the method: as §1

[7] = compound: CC1=C(C(CC(=O)N1)C2=CC=C(C=C2)C(F)(F)F)C(=O)NC3=C(C=C4C(=C3)C=NN4)F
Summary of the method: as §1

[8] = compound: CC1=C(C2=C(C=C1)C(=O)C3=CC=CC=C3N2CCCN)C
Summary of the method: as §1

[9] = compound: CC1=C(C=C(C=C1)NC(=O)C2=CC(=CC=C2)C(C)(C)C#N)NC3=CC4=C(C=C3)N=CN(C4=O)C
Summary of the method: as §1

[10] = compound: CC1=C(C=C(C=C1)NC(=O)C2=CC(=CC=C2)N(C)C)NC(=O)C3=CC=C(C=C3)O
Summary of the method: as §1

[11] = compound: CC1=CC=C(C=C1)SC2=C3C=C(SC3=CN=C2)C(=O)N
Summary of the method: as §1

[12] = compound: C/C(=N\NC(=O)C1=CC(=CC=C1)S(=O)(=O)N2CCOCC2)/C3=C(C=CC(=C3)Cl)O
Summary of the method: as §1

[13] = compound: C1=CC2=C(C=CC(=C2)/C=C\3/C(=O)NC(=NCC4=CC=CS4)S3)N=C1
Summary of the method: as §1

[14] = compound: C1=CC=C2C(=C1)C3=NNC4=CC=CC(=C43)C2=O
Summary of the method: as §1

[15] = compound: C1CCN(C1)C(=O)NC2=CC=CC(=C2)NC3=NC=C(C(=N3)NCCC4=CN=CN4)Br
Summary of the method: as §1

[16] = compound: C1CN(CCC1(CC2=CC=C(C=C2)Cl)N)C3=NC=NC4=C3C=CN4
Summary of the method: as §1

Measured: log2 fold change

KLHL42 (UniProt Q9P2K6)
inactive: erlotinib -0.055 | [1] -0.034 | [2] -0.11 | [3] -0.03 | IRAK-1-4 Inhibitor I 0.036 | ibrutinib 0.004 | [4] -0.115 | ralimetinib 0.091 | [5] 0.007 | [6] 0.022 | [7] -0.004 | [8] 0.125 | [9] -0.012 | [10] -0.01 | [11] 0.004

KIAA1586 (UniProt Q9HCI6)
inactive: erlotinib 0.021 | [12] -0.249 | [1] -0.086 | [13] 0.071 | [2] -0.061 | [3] -0.054 | [14] 0.056 | IRAK-1-4 Inhibitor I 0.088 | ibrutinib -0.219 | ralimetinib -0.014 | [5] -0.008 | [6] 0.108 | [7] -0.225 | [8] -0.1 | [10] -0.001

KRAS (UniProt P01116)
inactive: erlotinib -0.112 | [12] 0.033 | [1] 0.069 | [13] -0.052 | [3] -0.036 | [14] -0.041 | [15] -0.021 | [16] -0.008 | IRAK-1-4 Inhibitor I 0.007 | [4] 0.006 | ralimetinib -0.023 | [5] 0.063 | [6] -0.008 | [7] -0.037 | [8] 0.018 | [9] -0.048 | [10] 0.07 | [11] -0.058

KLC1 isoform 10 (UniProt Q07866)
inactive: erlotinib 0.071 | [1] -0.165 | [2] 0.122 | [15] 0.241 | [16] -0.337 | ibrutinib 0.235 | [6] -0.129

KIF26A (UniProt Q9ULI4)
inactive: erlotinib 0.117 | [12] -0.053 | [1] -0.089 | [13] 0.012 | [2] -0.022 | [3] -0.019 | [14] 0.159 | [15] 0.108 | [16] 0.249 | IRAK-1-4 Inhibitor I 0.093 | ibrutinib -0.022 | ralimetinib -0.125 | [5] 0.084 | [6] 0.008 | [7] -0.02 | [8] 0.007 | [9] 0.033 | [10] -0.048

KIFC3 isoform 6 (UniProt Q9BVG8)
inactive: erlotinib 0.091 | [12] 0.069 | [1] 0.14 | [13] 0.004 | [2] 0.076 | [14] -0.077 | [15] -0.103 | [16] 0.158 | ibrutinib 0 | [6] 0.097 | [8] -0.231 | [9] 0.193

Taken from the entries so far (2 entries):
KRAS (UniProt P01116)
inactive: erlotinib -0.112 | [12] 0.033 | [1] 0.069 | [13] -0.052 | [3] -0.036 | [14] -0.041 | [15] -0.021 | [16] -0.008 | IRAK-1-4 Inhibitor I 0.007 | [4] 0.006 | ralimetinib -0.023 | [5] 0.063 | [6] -0.008 | [7] -0.037 | [8] 0.018 | [9] -0.048 | [10] 0.07 | [11] -0.058

KLC1 isoform 10 (UniProt Q07866)
inactive: erlotinib 0.071 | [1] -0.165 | [2] 0.122 | [15] 0.241 | [16] -0.337 | ibrutinib 0.235 | [6] -0.129

(list continues)

KIF3C (UniProt O14782)
inactive: erlotinib 0.389 | [12] 0.05 | [1] -0.082 | [13] -0.116 | [3] 0.025 | [14] -0.117 | [15] 0.158 | [16] 0.146 | IRAK-1-4 Inhibitor I -0.023 | [4] -0.041 | ralimetinib -0.038 | [5] -0.032 | [6] -0.015 | [7] 0.03 | [8] -0.116 | [9] -0.007 | [10] 0.023 | [11] 0.044

KLHL12 isoform 2 (UniProt Q53G59)
inactive: erlotinib -0.051 | [12] 0.021 | [1] 0.004 | [13] 0.053 | [2] 0.165 | [3] -0.134 | [14] 0.04 | IRAK-1-4 Inhibitor I 0.046 | ibrutinib 0.156 | [4] 0.067 | ralimetinib 0.123 | [5] -0.032 | [6] 0.073 | [7] 0.026 | [8] -0.041 | [9] -0.066 | [10] 0 | [11] 0.007

LAMA5 (UniProt O15230)
inactive: erlotinib -0.139 | [1] 0.248 | [2] -0.042 | [3] 0.001 | [15] 0.129 | [16] -0.1 | IRAK-1-4 Inhibitor I -0.044 | ibrutinib -0.29 | ralimetinib 0.036 | [5] -0.04 | [6] -0.133 | [8] 0.021 | [9] -0.094 | [10] 0.017

KRI1 (UniProt Q8N9T8)
inactive: erlotinib -0.017 | [12] -0.038 | [1] -0.017 | [13] -0.1 | [2] -0.012 | [3] 0.02 | [14] -0.138 | [15] 0.033 | [16] -0.04 | IRAK-1-4 Inhibitor I 0.047 | ibrutinib -0.023 | ralimetinib 0.047 | [5] -0.018 | [6] 0.043 | [7] 0.074 | [8] -0.069 | [9] 0.02 | [10] 0.046

KLF1 (UniProt Q13351)
inactive: erlotinib -0.015 | [1] 0.009 | [2] 0.07 | [3] -0.253 | IRAK-1-4 Inhibitor I 0.012 | ibrutinib 0.029 | [4] -0.13 | ralimetinib 0.067 | [5] 0.058 | [6] -0.051 | [7] 0.096 | [10] 0.065 | [11] 0.01

KIAA1549 (UniProt Q9HCM3)
inactive: [2] -0.065 | [3] -0.03 | IRAK-1-4 Inhibitor I -0.001 | ibrutinib 0.001 | ralimetinib 0.021 | [5] -0.098 | [7] 0.345 | [10] -0.021

KLC3 isoform 3 (UniProt Q6P597)
inactive: [2] 0.052 | [15] 0.114 | [16] 0.002 | ibrutinib -0.055 | [4] 0.041 | [7] 0.002 | [9] 0.234 | [11] 0.001

KISS1R (UniProt Q969F8)
inactive: [7] -0.016 | [9] 0.339

KLHL26 (UniProt Q53HC5)
inactive: erlotinib 0.094 | [1] 0.122 | [4] 0.018 | [6] -0.209 | [7] -0.254 | [8] -0.098 | [9] 0.074 | [11] 0.067

KPNA5 (UniProt O15131)
inactive: erlotinib -0.071 | [1] 0.079 | [6] 0.002 | [7] 0.189

KLHL8 (UniProt Q9P2G9)
inactive: [3] 0.062 | IRAK-1-4 Inhibitor I 0.045 | ralimetinib -0.275 | [5] -0.16 | [10] 0.044

KDM5A (UniProt P29375)
inactive: [3] 0 | IRAK-1-4 Inhibitor I -0.098 | ralimetinib -0.066 | [5] 0.074 | [8] 0 | [9] 0.092 | [10] 0.253

KPNB1 (UniProt J3QKQ5)
inactive: [3] -0.025 | IRAK-1-4 Inhibitor I -0.144 | ralimetinib 0.007 | [5] -0.045 | [10] 0.334

KMT2D (UniProt O14686)
inactive: [8] 0.046

KLF3 (UniProt P57682)
inactive: [3] -0.132 | [15] 0.03 | [16] -0.064 | IRAK-1-4 Inhibitor I 0.01 | ralimetinib -0.069 | [5] -0.074 | [7] 0.288 | [9] 0.195 | [10] -0.234

L3MBTL4 (UniProt Q8NA19)
inactive: [12] -0.102 | [13] 0.004 | [2] -0.074 | [3] 0.063 | [14] -0.003 | [15] -0.063 | [16] 0.046 | IRAK-1-4 Inhibitor I -0.117 | ibrutinib 0.015 | [4] -0.064 | ralimetinib -0.037 | [5] -0.107 | [7] -0.025 | [9] -0.003 | [10] 0.047 | [11] -0.025

LACRT (UniProt Q9GZZ8)
inactive: erlotinib 0.017 | [1] -0.038 | [4] -0.2 | [6] 2.36 | [11] -0.097

L3MBTL2 (UniProt Q969R5)
inactive: [15] -0.109 | [16] 0.081 | [7] -0.011 | [8] -0.031 | [9] 0.063

KLF13 (UniProt Q9Y2Y9)
inactive: [9] -0.109

LAMB2 (UniProt P55268)
inactive: erlotinib 0.106 | [1] -0.378 | [15] 0.272 | [16] 0.07 | [6] -0.327 | [8] 0.211

LAPTM4A (UniProt Q15012)
inactive: [12] -0.386 | [13] 0.035 | [14] 0.036 | [8] 0.279

LANCL3 (UniProt Q6ZV70)
inactive: [12] 0.078 | [13] 0.02 | [2] 0.011 | [14] 0.135 | [15] -0.031 | [16] 0.077 | ibrutinib 0.081 | [7] -0.005
